Measured values published in publication doi:10.1101/2021.12.06.471412.
No constants are given. Whether binding was seen depends on the method and setting. For some assays here: Binding seen in cells or lysates may run through a third protein. Some binding calls cover weakened binding; strength is not graded here. Where a sequence is shown, tags or fusion partners need not be part of it.

By UniProt entry, the sequences of proteins in these tests, tags left out. Residues count along the entry.
UniProt P30405, 30-207: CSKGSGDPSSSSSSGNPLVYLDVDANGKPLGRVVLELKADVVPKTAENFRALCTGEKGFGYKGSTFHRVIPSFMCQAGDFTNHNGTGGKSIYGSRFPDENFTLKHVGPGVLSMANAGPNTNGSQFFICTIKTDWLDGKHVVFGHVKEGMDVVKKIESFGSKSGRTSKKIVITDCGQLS

Tests used:
[1] = biological target: T1, oligomycin sensitivity-conferring protein (OSCP) subunit of F-ATP synthase (human (endogenous in U87)) (UniProt P48047); test: co-IP
T1 sequence: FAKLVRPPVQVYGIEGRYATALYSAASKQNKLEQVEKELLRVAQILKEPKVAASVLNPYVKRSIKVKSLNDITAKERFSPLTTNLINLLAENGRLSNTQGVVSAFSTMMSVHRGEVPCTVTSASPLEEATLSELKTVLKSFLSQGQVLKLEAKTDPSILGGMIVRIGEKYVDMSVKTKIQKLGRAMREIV

[2] = biological target: T1, oligomycin sensitivity-conferring protein (OSCP) subunit of F-ATP synthase (human (endogenous in U87)); test: SEC

binding [1]: binds
binding [2]: binds
Substance: peptidyl-prolyl cis-trans isomerase cyclophilin D (CyPD) (from UniProt P30405 30-207)
